{"source": "patent US20120041305A1", "about": "“LIGHT-EMITTING DYE FOR INTRAOPERATIVE IMAGING OR SENTINEL LYMPH NODE BIOPSY” (THE UNIVERSITY OF UTAH RESEARCH FOUNDATION, priority 2009, published 2012)", "assay": "Porcine model of lymphatic mapping (intradermal limb injection)", "type": "in vivo", "settings": "swine, injected in the same location", "data": [{"smiles": "CCN(CC)c1ccc(C(=C2C=CC(=[N+](CC)CC)C=C2)c2cc(S(=O)(=O)[O-])ccc2S(=O)(=O)[O-])cc1.[Na+]", "note": "[Lymphazurin, isosulfan blue]", "values": [{"measurement": "co-localization of fluorescein and blue dye in lymphatics and SLN", "setting": "listed as Lymphazurin™", "value": "co-localized in the same lymphatic trunks and drained to the same SLN"}, {"measurement": "co-localization of fluorescein and blue dye in lymphatics and SLN", "setting": "listed as isosulfan blue", "value": "co-localizes in the afferent lymphatics and the sentinel lymph node"}]}]}
